# In paper PMC6508501, “Conserved redox‐dependent DNA binding of ROXY glutaredoxins with TGA transcription factors”:
# These are yes or no findings as the source states them, for the method shown. Binding can be weak; no strength is given. For some of these results: Sequences can lack the tags named with a protein. For some of these results: Binding seen in cells or lysates may run through a third protein.
# Legend:
# [1] = target: T1, PAN (MBP fusion) (Arabidopsis thaliana) (UniProt Q9SX27); test: native gel or EMSA; supershift of the PAN/as-1-like bands; A. thaliana ROXY1 protein (source not told) added to PAN and 6-FAM-labelled as-1-like oligonucleotide
# T1 sequence: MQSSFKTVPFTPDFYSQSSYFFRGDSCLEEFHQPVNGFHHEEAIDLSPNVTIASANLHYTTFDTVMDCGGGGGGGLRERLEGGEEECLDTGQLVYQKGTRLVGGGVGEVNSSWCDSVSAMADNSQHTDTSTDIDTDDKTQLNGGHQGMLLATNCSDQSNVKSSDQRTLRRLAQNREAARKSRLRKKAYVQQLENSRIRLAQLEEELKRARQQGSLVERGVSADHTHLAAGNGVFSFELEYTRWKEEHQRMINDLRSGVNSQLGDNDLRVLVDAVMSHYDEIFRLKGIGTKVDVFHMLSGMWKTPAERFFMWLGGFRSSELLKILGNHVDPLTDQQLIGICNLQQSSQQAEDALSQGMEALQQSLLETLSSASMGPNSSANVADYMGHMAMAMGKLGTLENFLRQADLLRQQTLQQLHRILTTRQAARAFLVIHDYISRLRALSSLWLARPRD
# [2] = target: T2, BD-PAN (Arabidopsis thaliana) (UniProt Q9SX27); test: two-hybrid; yeast; AD-MpROXY1/2 as prey, BD-MpTGA/PAN as bait; interaction strength quantified by ß-galactosidase reporter gene expression
# T2 sequence: T1 sequence
# [3] = target: T1, PAN (MBP fusion) (Arabidopsis thaliana); test: native gel or EMSA; supershift of the PAN/as-1-like bands; purified MBP-MpROXY1 or MBP-MpROXY2 added to PAN and 6-FAM-labelled as-1-like oligonucleotide; both purified
# [4] = target: T3, YC-PAN (Arabidopsis thaliana) (UniProt Q9SX27); test: split reporter; BiFC; YN and YC fusions coinfiltrated by Agrobacterium into N. benthamiana leaf epidermis cells; nuclear YFP fluorescence four days later
# T3 sequence: T1 sequence
substance,measurement,setting,value
A. thaliana ROXY1 protein (EMSA) (Arabidopsis thaliana),binding,[1],binds
AD-MpROXY1 (Marchantia polymorpha),binding,[2],binds
AD-MpROXY2 (Marchantia polymorpha),binding,[2],binds
MBP-MpROXY1 (Marchantia polymorpha),binding,[3],binds
MBP-MpROXY2 (Marchantia polymorpha),binding,[3],binds
YN-MpROXY1 (Marchantia polymorpha),binding,[4],binds
YN-MpROXY2 (Marchantia polymorpha),binding,[4],binds
